Assay results reported in publication doi:10.1101/2024.08.08.607204, “Mechanism of ASF1 Inhibition by CDAN1” (bioRxiv, 2024).
Positions count from the first letter of the chain named. No constants are given. Whether binding was seen depends on the method and setting. In cells and extracts the contact can be indirect. Some binding calls cover weakened binding; strength is not graded here. Values belong to the molecule of their own block, whether it stands above or below them.

Amino acid sequences for entries named in this document (tags omitted). A change or cut given only in a name is not applied to a line headed by its entry.
UniProt Q9Y294: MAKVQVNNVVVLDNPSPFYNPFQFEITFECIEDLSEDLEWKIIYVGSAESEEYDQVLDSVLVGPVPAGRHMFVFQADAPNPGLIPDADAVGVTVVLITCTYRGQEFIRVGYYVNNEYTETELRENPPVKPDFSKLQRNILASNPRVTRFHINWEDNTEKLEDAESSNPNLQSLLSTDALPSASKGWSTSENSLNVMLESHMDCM
UniProt Q9NVP2: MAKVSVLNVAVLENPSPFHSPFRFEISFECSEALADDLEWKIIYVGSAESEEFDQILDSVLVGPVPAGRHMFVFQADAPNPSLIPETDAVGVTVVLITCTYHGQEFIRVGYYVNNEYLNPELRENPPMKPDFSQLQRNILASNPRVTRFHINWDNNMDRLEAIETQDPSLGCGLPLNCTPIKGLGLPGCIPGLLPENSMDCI

Experiments:
[1] = molecular target: T1, Strep-CDAN1 H* (R541A/R544A/R548A) (human) (UniProt Q8IWY9); experiment: pull-down; Strep-Tactin Sepharose pulldown of ST-CDAN1 variants from lysates of transfected Flp-In 293 T-REx cells (alone, or co-transfected with FLAG-tagged ASF1 variants), IP buffer with 1% Triton X-100, 1 hr at 4°C; immunoblotting
T1 sequence: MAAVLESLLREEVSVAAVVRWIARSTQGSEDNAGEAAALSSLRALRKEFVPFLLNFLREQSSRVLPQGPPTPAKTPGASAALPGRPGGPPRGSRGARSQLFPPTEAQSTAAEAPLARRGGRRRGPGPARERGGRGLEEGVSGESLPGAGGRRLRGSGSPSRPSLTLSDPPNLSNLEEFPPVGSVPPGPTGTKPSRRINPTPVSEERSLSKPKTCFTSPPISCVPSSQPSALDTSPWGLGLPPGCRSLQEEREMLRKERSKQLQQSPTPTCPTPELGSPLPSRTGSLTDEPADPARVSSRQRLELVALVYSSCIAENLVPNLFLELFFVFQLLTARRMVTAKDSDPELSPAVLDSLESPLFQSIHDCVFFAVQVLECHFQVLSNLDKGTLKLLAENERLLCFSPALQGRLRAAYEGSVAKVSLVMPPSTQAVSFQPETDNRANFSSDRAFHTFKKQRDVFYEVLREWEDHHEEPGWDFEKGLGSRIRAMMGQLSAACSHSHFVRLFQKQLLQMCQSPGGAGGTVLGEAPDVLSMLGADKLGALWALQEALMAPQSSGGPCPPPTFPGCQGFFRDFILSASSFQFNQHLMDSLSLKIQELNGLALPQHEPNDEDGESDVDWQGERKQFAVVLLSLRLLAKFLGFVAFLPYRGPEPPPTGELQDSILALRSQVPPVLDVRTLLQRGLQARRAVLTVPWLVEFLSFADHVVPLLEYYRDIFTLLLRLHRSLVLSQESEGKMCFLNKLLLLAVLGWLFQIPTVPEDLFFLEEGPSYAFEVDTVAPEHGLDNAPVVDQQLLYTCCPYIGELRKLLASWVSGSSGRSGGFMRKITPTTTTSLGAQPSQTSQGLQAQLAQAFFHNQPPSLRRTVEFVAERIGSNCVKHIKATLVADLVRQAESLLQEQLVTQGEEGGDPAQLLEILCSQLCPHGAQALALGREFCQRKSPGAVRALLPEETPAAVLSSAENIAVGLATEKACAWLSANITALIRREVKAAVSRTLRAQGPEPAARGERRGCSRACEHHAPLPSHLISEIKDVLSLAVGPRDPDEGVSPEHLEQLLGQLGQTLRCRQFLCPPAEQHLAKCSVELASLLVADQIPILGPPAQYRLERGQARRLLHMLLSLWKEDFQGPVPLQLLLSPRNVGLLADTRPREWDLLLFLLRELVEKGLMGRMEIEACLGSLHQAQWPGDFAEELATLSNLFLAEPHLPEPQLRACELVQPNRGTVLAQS

[2] = molecular target: T2, Strep-CDAN1 H*+B* (S194A/R195A/R196 + R541A/R544A/R548A) (human) (UniProt Q8IWY9); experiment: as above
T2 sequence: T1 sequence with S194A, R195A, R196A

Molecule: FLAG-ASF1B>N (ASF1B with the N-terminal domain, residues 1-27, of ASF1A) (from UniProt Q9Y294 1-27; Q9NVP2 28-202)
binding [1]: binds
binding [2]: no binding

Molecule: FLAG-tagged ASF1A (F-ASF1A) (from UniProt Q9Y294 1-204)
binding [1]: binds
binding [2]: no binding

Molecule: endogenous ASF1A (from UniProt Q9Y294 1-204)
binding [1]: binds
binding [2]: no binding

Molecule: endogenous ASF1B (from UniProt Q9NVP2 1-202)
binding [1]: no binding
binding [2]: no binding

Other lines, results leading:

binding [1]: no binding
binding [2]: no binding
Molecule: FLAG-ASF1A>N (ASF1A with the N-terminal domain, residues 1-27, of ASF1B) (from UniProt Q9NVP2 1-27; Q9Y294 28-204)

binding [1]: binds
binding [2]: binds
B1: FLAG-tagged CDIN1 (F-CDIN1) (natural protein, UniProt Q9Y2V0 1-281, looked up)
chain: MILTKAQYDEIAQCLVSVPPTRQSLRKLKQRFPSQSQATLLSIFSQEYQKHIKRTHAKHHTSEAIESYYQRYLNGVVKNGAAPVLLDLANEVDYAPSLMARLILERFLQEHEETPPSKSIINSMLRDPSQIPDGVLANQVYQCIVNDCCYGPLVDCIKHAIGHEHEVLLRDLLLEKNLSFLDEDQLRAKGYDKTPDFILQVPVAVEGHIIHWIESKASFGDECSHHAYLHDQFWSYWNRFGPGLVIYWYGFIQELDCNRERGILLKACFPTNIVTLCHSIA
notes: CDIN1 (C15orf41) cDNA synthesized by IDT, in pCDNA3.1; source: Expi293, transiently transfected, in lysate and purified in complexes (anti-FLAG, Strep-Tactin); not shown: 3xFLAG, N-terminal, kept
